From publication PMC5289628 come the findings set out here.

Protein sequences, listed by entry. Tags and fused reporters are not part of them. Lines headed by an entry give the natural chain unless they say otherwise; changes in a name come on top. Chains listed by the source or under a name are the forms on record and can include a tag or linker.
UniProt P24344: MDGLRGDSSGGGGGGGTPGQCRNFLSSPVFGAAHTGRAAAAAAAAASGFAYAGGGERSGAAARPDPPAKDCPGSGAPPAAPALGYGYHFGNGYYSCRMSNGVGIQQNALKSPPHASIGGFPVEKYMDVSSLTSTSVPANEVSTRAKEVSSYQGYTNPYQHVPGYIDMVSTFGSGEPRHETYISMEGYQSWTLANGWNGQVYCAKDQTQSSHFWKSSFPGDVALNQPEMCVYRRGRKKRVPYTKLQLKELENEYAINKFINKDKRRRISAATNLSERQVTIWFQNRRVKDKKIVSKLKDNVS
3xFLAG-HOXA10 (E1C8Y7, form named): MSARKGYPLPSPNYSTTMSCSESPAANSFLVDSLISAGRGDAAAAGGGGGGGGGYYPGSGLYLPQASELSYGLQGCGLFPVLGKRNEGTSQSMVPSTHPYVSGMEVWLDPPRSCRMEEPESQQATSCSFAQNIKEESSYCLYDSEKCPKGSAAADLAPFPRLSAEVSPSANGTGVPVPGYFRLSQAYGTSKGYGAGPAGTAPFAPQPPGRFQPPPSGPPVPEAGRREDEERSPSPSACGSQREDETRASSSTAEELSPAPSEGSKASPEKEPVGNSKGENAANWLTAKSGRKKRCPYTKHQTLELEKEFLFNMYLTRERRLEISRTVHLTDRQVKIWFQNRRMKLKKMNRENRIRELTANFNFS

No constants are given. Whether binding was seen depends on the method and setting. Binding seen in cells or lysates may run through a third protein. Some entries that bind do so weakly or less than the wild type.

In this experiment the target is T1, CTCF (the CCCTC-binding factor), endogenous (chicken (endogenous in DF1)) (UniProt Q08705).
T1 sequence: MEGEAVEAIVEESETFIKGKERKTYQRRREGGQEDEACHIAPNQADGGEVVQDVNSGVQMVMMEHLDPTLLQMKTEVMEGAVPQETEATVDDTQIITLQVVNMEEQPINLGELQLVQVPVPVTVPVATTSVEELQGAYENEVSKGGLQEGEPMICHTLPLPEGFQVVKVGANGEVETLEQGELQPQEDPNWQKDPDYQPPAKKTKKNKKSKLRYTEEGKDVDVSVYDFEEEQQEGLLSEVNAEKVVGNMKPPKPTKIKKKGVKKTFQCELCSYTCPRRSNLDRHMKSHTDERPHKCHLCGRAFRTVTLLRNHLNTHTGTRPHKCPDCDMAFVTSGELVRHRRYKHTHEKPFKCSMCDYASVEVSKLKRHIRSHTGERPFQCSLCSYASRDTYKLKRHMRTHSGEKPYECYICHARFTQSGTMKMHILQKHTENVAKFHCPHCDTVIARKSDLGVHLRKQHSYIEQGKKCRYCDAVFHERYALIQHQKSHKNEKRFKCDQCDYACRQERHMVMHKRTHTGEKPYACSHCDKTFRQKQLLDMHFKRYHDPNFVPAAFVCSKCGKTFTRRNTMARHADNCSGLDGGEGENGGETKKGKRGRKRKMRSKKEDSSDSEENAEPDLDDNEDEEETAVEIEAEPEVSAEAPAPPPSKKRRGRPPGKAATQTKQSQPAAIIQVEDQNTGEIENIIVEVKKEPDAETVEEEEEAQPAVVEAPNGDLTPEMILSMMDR
The experiment can be described thus: proximity ligation; Duolink In Situ PLA in chicken DF1 cells fixed with 4% PFA; primary antibodies m-αFLAG M2 + rb-αCTCF (FLAG-HOX and CTCF) or m-αHA + rb-αRAD21 (HA-CTCF and RAD21); confocal imaging, contacts counted per nucleus.

On to “3xFLAG-HOXD13 (from UniProt P24344 1-301)”, for which the binding result is reported as “binds weakly”.

For the substance “3xFLAG-HOXA10 (from UniProt E1C8Y7 1-364)”, the binding result was “binds”.
